Test results: patent US20250066346A1, “SOLID FORMS OF A BENZTHIAZOLE-PIPERAZINYL-OXAZOLE COMPOUND AND METHODS OF USE THEREOF” (Hepagene Therapeutics (HK) Limited, priority 2022, published 2025)
Counter-ions that a name gives are not always drawn. Some of these results come from one statement about several compounds together.

Assay: Kinetic solubility in water and bio-relevant media (SGF, FaSSIF, FeSSIF) at 37° C.
Type: physicochemical
Conditions: text summary of Table 15
Experimental: Agilent 1260 HPLC was utilized and detailed chromatographic conditions are provided in Tables 3 and 4 for purity and solubility test, respectively.
About 20 mg of free base (form A) HCl salt (form B), and HBr salt (form D) were added to a 5-mL glass vials followed by the addition of 4 mL of the corresponding medium/solvent into each glass vial to form a suspension. The vials were capped and rolled at 37° C. (25 rpm). Samples were removed (1 mL) at 1 h, 4 h, and 24 h and centrifuged (14000 rpm, 2 min, room temperature). The supernatant was filtered through 0.22 μm syringe filter (first few drops of filtrate were discarded) for HPLC solubility and pH tests (Table 15). The residual solids were analyzed by XRPD.

SMILES	solubility in water [µg/mL]
COc1cc(C(=O)O)cc2sc(N3CCN(Cc4c(-c5c(Cl)cccc5Cl)noc4C4CC4)C[C@H]3C)nc12 [HBr salt Form D, (R)-2-(4-((5-cyclopropyl-3-(2,6-dichlorophenyl)isoxazol-4-yl)methyl)-2-methylpiperazin-1-yl)-4-methoxybenzo[d]thiazole-6-carboxylic acid]	< 7
COc1cc(C(=O)O)cc2sc(N3CCN(Cc4c(-c5c(Cl)cccc5Cl)noc4C4CC4)C[C@H]3C)nc12 [HCl salt Form B, (R)-2-(4-((5-cyclopropyl-3-(2,6-dichlorophenyl)isoxazol-4-yl)methyl)-2-methylpiperazin-1-yl)-4-methoxybenzo[d]thiazole-6-carboxylic acid]	< 7
